# Measurements taken from the supplement of paper PMC8728848.
# The other results are listed elsewhere or left out.
# Tests used:
# Test in all cases: glycan array binding signal (z-score within array); higher = stronger binding
# Conditions in all cases: glycan notation: IUPAC condensed, linker removed
# Neu5Ac(a2-3)Gal(b1-4)Glc = target: Neu5Ac(a2-3)Gal(b1-4)Glc
# Method in brief: (§1)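 The Consortium for Functional Glycomics database supplied 3228 glycan arrays, of which those lacking an available protein sequence were dropped. The binding signal, a within-array Z-score, was averaged across arrays of the same protein sequence and across linkers. Negative scores can be read as non-binding.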
# [1] = target: Neu5Ac(a2-3)Gal(b1-4)GlcNAc
# Method in brief: as §1
# [2] = target: Neu5Ac(a2-3)Gal(b1-4)GlcNAc(b1-3)Gal(b1-3)GlcNAc
# Method in brief: as §1
# [3] = target: Neu5Ac(a2-3)Gal(b1-4)GlcNAc(b1-3)Gal(b1-4)GlcNAc
# Method in brief: as §1
# [4] = target: Neu5Ac(a2-3)Gal(b1-4)GlcNAc(b1-3)Gal(b1-4)GlcNAc(b1-3)Gal(b1-4)GlcNAc
# Method in brief: as §1
# [5] = target: Neu5Ac(a2-3)Gal(b1-4)GlcNAc(b1-3)Gal(b1-4)[Fuc(a1-3)]GlcNAc
# Method in brief: as §1
# [6] = target: Neu5Ac(a2-3)Gal(b1-4)GlcNAc(b1-6)[Gal(b1-3)]GalNAc
# Method in brief: as §1
# [7] = target: Neu5Ac(a2-3)Gal(b1-4)GlcNAc6S
# Method in brief: as §1
# [8] = target: Neu5Ac(a2-3)Gal(b1-4)[Fuc(a1-3)]GlcNAc
# Method in brief: as §1
# [9] = target: Neu5Ac(a2-3)Gal(b1-4)[Fuc(a1-3)]GlcNAc(b1-3)Gal
# Method in brief: as §1
# [10] = target: Neu5Ac(a2-3)Gal(b1-4)[Fuc(a1-3)]GlcNAc(b1-3)Gal(b1-4)GlcNAc
# Method in brief: as §1
# [11] = target: Neu5Ac(a2-3)Gal(b1-4)[Fuc(a1-3)]GlcNAc(b1-3)Gal(b1-4)[Fuc(a1-3)]GlcNAc(b1-3)Gal(b1-4)[Fuc(a1-3)]GlcNAc
# Method in brief: as §1
# [12] = target: Neu5Ac(a2-3)Gal(b1-4)[Fuc(a1-3)]GlcNAc6S
# Method in brief: as §1
# [13] = target: Neu5Ac(a2-3)Gal6S(b1-4)GlcNAc
# Method in brief: as §1
# [14] = target: Neu5Ac(a2-3)Gal6S(b1-4)[Fuc(a1-3)]GlcNAc
# Method in brief: as §1
# Neu5Ac(a2-3)GalNAc = target: Neu5Ac(a2-3)GalNAc
# Method in brief: as §1
# [15] = target: Neu5Ac(a2-3)GalNAc(b1-4)GlcNAc
# Method in brief: as §1
# [16] = target: Neu5Ac(a2-3)[GalNAc(b1-4)]Gal(b1-4)Glc
# Method in brief: as §1
# [17] = target: Neu5Ac(a2-3)[GalNAc(b1-4)]Gal(b1-4)GlcNAc
# Method in brief: as §1
# [18] = target: Neu5Ac(a2-3)[Neu5Ac(a2-6)]GalNAc
# Method in brief: as §1
# Neu5Ac(a2-6)Gal = target: Neu5Ac(a2-6)Gal
# Method in brief: as §1
# Neu5Ac(a2-6)Gal(b1-4)Glc = target: Neu5Ac(a2-6)Gal(b1-4)Glc
# Method in brief: as §1
# [19] = target: Neu5Ac(a2-6)Gal(b1-4)GlcNAc
# Method in brief: as §1
# [20] = target: Neu5Ac(a2-6)Gal(b1-4)GlcNAc(b1-2)Man(a1-3)[Neu5Ac(a2-6)Gal(b1-4)GlcNAc(b1-2)Man(a1-6)]Man(b1-4)GlcNAc(b1-4)GlcNAc
# Method in brief: as §1
# [21] = target: Neu5Ac(a2-6)Gal(b1-4)GlcNAc(b1-3)Gal(b1-4)GlcNAc
# Method in brief: as §1
# [22] = target: Neu5Ac(a2-6)Gal(b1-4)GlcNAc(b1-3)Gal(b1-4)[Fuc(a1-3)]GlcNAc(b1-3)Gal(b1-4)[Fuc(a1-3)]GlcNAc
# Method in brief: as §1
# [23] = target: Neu5Ac(a2-6)Gal(b1-4)GlcNAc6S
# Method in brief: as §1
# Neu5Ac(a2-6)GalNAc = target: Neu5Ac(a2-6)GalNAc
# Method in brief: as §1
# [24] = target: Neu5Ac(a2-6)GalNAc(b1-4)GlcNAc
# Method in brief: as §1
# Neu5Ac(a2-8)Neu5Ac = target: Neu5Ac(a2-8)Neu5Ac
# Method in brief: as §1
# [25] = target: Neu5Ac(a2-8)Neu5Ac(a2-3)Gal(b1-4)Glc
# Method in brief: as §1
# [26] = target: Neu5Ac(a2-8)Neu5Ac(a2-3)[GalNAc(b1-4)]Gal(b1-4)Glc
# Method in brief: as §1
# [27] = target: Neu5Ac(a2-8)Neu5Ac(a2-8)Neu5Ac
# Method in brief: as §1
# [28] = target: Neu5Ac(a2-8)Neu5Ac(a2-8)Neu5Ac(a2-3)Gal(b1-4)Glc
# Method in brief: as §1
# [29] = target: Neu5Ac(a2-8)Neu5Ac(a2-8)Neu5Ac(a2-3)[GalNAc(b1-4)]Gal(b1-4)Glc
# Method in brief: as §1
# [30] = target: Neu5Ac(a2-8)Neu5Ac(a2-8)Neu5Ac(a2-8)Neu5Ac(a2-3)[GalNAc(b1-4)]Gal(b1-4)Glc
# Method in brief: as §1
# [31] = target: Neu5Ac(b2-6)Gal(b1-4)GlcNAc
# Method in brief: as §1
# Neu5Ac(b2-6)GalNAc = target: Neu5Ac(b2-6)GalNAc
# Method in brief: as §1
# [32] = target: Neu5Ac9Ac(a2-6)Gal(b1-4)GlcNAc
# Method in brief: as §1
# [33] = target: Neu5Gc(a2-3)Gal(b1-3)GlcNAc
# Method in brief: as §1
# [34] = target: Neu5Gc(a2-3)Gal(b1-3)[Fuc(a1-4)]GlcNAc
# Method in brief: as §1
# Neu5Gc(a2-3)Gal(b1-4)Glc = target: Neu5Gc(a2-3)Gal(b1-4)Glc
# Method in brief: as §1
# [35] = target: Neu5Gc(a2-3)Gal(b1-4)GlcNAc
# Method in brief: as §1
# [36] = target: Neu5Gc(a2-3)Gal(b1-4)[Fuc(a1-3)]GlcNAc
# Method in brief: as §1
# [37] = target: Neu5Gc(a2-6)Gal(b1-4)GlcNAc
# Method in brief: as §1
# Neu5Gc(a2-6)GalNAc = target: Neu5Gc(a2-6)GalNAc
# Method in brief: as §1
binder,measurement,setting,value
Fap1 (Streptococcus parasanguis) (protein) KATSKGTEEKQDSVRENLDKMISEAEVLNDMAARKLITLDAEQQLELMKSLVATQSQLEATKNLIGDPNATVADLQIAYTTLGNNTQALGNELIKLNPNGQIYAVLNNTEASRAATLRSTTTGTKTTFTISDFSNGGTQYYWAGGNANNLKNPISSISAVYDSATGKISWTVEYDPTTILKSPALKTLKTYTGIYIDTSSDSKLSTPTNVLIDGAATNPVTNFYGNGSKGIEYVSKGTTKGVTKHTITFDTAFSGRANDLADLEIKMLAATTLSDPHFYEDGSKGNYGRYNGQTAPYVIANDSGTAIGGYQVSGVNADSIPSDTT,glycan array binding signal (z-score),Neu5Ac(a2-3)Gal(b1-4)Glc,-0.442
same,glycan array binding signal (z-score),[1],-0.334
same,glycan array binding signal (z-score),[2],-0.891
same,glycan array binding signal (z-score),[3],-0.877
same,glycan array binding signal (z-score),[4],-0.41
same,glycan array binding signal (z-score),[5],-0.496
same,glycan array binding signal (z-score),[6],-0.71
same,glycan array binding signal (z-score),[7],-0.707
same,glycan array binding signal (z-score),[8],0.242
same,glycan array binding signal (z-score),[9],-0.644
same,glycan array binding signal (z-score),[10],0.435
same,glycan array binding signal (z-score),[11],-0.013
same,glycan array binding signal (z-score),[12],-0.257
same,glycan array binding signal (z-score),[13],0.327
same,glycan array binding signal (z-score),[14],-0.795
same,glycan array binding signal (z-score),Neu5Ac(a2-3)GalNAc,-0.853
same,glycan array binding signal (z-score),[15],-0.369
same,glycan array binding signal (z-score),[16],-0.555
same,glycan array binding signal (z-score),[17],-0.662
same,glycan array binding signal (z-score),[18],-0.514
same,glycan array binding signal (z-score),Neu5Ac(a2-6)Gal,-0.771
same,glycan array binding signal (z-score),Neu5Ac(a2-6)Gal(b1-4)Glc,-0.161
same,glycan array binding signal (z-score),[19],-0.756
same,glycan array binding signal (z-score),[20],0.052
same,glycan array binding signal (z-score),[21],-0.24
same,glycan array binding signal (z-score),[22],-0.227
same,glycan array binding signal (z-score),[23],1.33
same,glycan array binding signal (z-score),Neu5Ac(a2-6)GalNAc,-0.49
same,glycan array binding signal (z-score),[24],-0.646
same,glycan array binding signal (z-score),Neu5Ac(a2-8)Neu5Ac,-0.731
same,glycan array binding signal (z-score),[25],-0.66
same,glycan array binding signal (z-score),[26],-0.585
same,glycan array binding signal (z-score),[27],-0.493
same,glycan array binding signal (z-score),[28],-0.677
same,glycan array binding signal (z-score),[29],-0.898
same,glycan array binding signal (z-score),[30],-0.351
same,glycan array binding signal (z-score),[31],-0.474
same,glycan array binding signal (z-score),Neu5Ac(b2-6)GalNAc,-0.746
same,glycan array binding signal (z-score),[32],0.638
same,glycan array binding signal (z-score),[33],-0.57
same,glycan array binding signal (z-score),[34],-0.49
same,glycan array binding signal (z-score),Neu5Gc(a2-3)Gal(b1-4)Glc,0.477
same,glycan array binding signal (z-score),[35],-0.169
same,glycan array binding signal (z-score),[36],-0.18
same,glycan array binding signal (z-score),[37],0.324
same,glycan array binding signal (z-score),Neu5Gc(a2-6)GalNAc,0.46

# Quoted at random: 3 records from the list, in no set order.
binder,measurement,setting,value
Fap1 (Streptococcus parasanguis) (protein) KATSKGTEEKQDSVRENLDKMISEAEVLNDMAARKLITLDAEQQLELMKSLVATQSQLEATKNLIGDPNATVADLQIAYTTLGNNTQALGNELIKLNPNGQIYAVLNNTEASRAATLRSTTTGTKTTFTISDFSNGGTQYYWAGGNANNLKNPISSISAVYDSATGKISWTVEYDPTTILKSPALKTLKTYTGIYIDTSSDSKLSTPTNVLIDGAATNPVTNFYGNGSKGIEYVSKGTTKGVTKHTITFDTAFSGRANDLADLEIKMLAATTLSDPHFYEDGSKGNYGRYNGQTAPYVIANDSGTAIGGYQVSGVNADSIPSDTT,glycan array binding signal (z-score),Neu5Ac(a2-8)Neu5Ac,-0.731
same,glycan array binding signal (z-score),Neu5Gc(a2-6)GalNAc,0.46
same,glycan array binding signal (z-score),[21],-0.24
